Results from PubChem BioAssay AID1347075 (National Center for Advancing Translational Sciences (NCATS), 2019).
Out of some 400,000 compounds screened, about 5,500 (1.4%) were called active. Inconclusive results, whose numbers are uncertain, are shown with a selection of clear calls. Calls follow the shape of the dose curve; as a rule, active = well fitted cell-killing curve with a large enough effect; inconclusive = small, poorly fitted or top-dose-only effect, or effect the other way; inactive = flat fitted curve, though single readings scatter. Potencies beside an inconclusive call are fits to weak or partial responses and may not hold up.

Experiment: qHTS assay for MDR1-selective chemotherapeutics: Primary screen using the parental adenocarcinoma cell KB-3-1; also: nearly all actives have a fitted effect of over 60% in size
Details: KB-3-1 viability, CellTiter-Glo ATP luminescence, 72 h; series mostly up to 46.1 µM
Outline: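 Multi-concentration cytotoxicity screen in KB-3-1 cells grown in DMEM lacking phenol red with 10% FBS. After 72 h at 37 °C with compound, ATP-dependent luminescence was recorded.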
Potency is read from the fitted curve at half-maximal effect.

SMILES	Potency
Cc1ccc(NC(=O)C2(C)CCN2C(=O)Cc2cc(F)ccc2F)cc1 (stereo unspecified)	inactive
COc1ccc(NC(=O)Cn2c(=O)oc3cc(S(=O)(=O)N4CCCCCC4)ccc32)cc1OC	inconclusive: 20.6 µM [cytotoxic, partial curve, poor fit]
COc1ccccc1N(CC(=O)Nc1c(C)n(C)n(-c2ccccc2)c1=O)S(=O)(=O)c1ccc(C)cc1	inconclusive: 3.66 µM [rising, partial curve, poor fit]
CN(CCC#N)C(=O)CC1(Cc2ccccc2)CCOC(C)(C)C1 (stereo unspecified)	inactive
CCC(C)NCCOCCOc1ccc(Cl)c(C)c1C (stereo unspecified)	inconclusive: 18.4 µM [cytotoxic, single point]
COc1cc2c(cc1NCc1ccc3c(c1)OCO3)oc1ccccc12	inconclusive: 23.1 µM [cytotoxic, single point]
COc1ccc(CN2C(=O)C(CC(=O)NCCCCc3ccccc3)CC(C(=O)N(C)C)=C2C)cc1 (stereo unspecified)	inactive
C=C(C)[C@@H]1CC=C(CN2CCC(N3CCC(C(=O)N4CCCC4)CC3)CC2)CC1	inconclusive: 20.6 µM [cytotoxic, single point]
COc1ccc(CNC(=O)C2CCN(S(=O)(=O)c3ccc(N4CCCC4=O)cc3)CC2)cc1	inconclusive: 18.4 µM [cytotoxic, partial curve]
Cc1cc(=S)nc(-c2ccccn2)[nH]1	inconclusive: 14.6 µM [cytotoxic, partial curve]
Cc1cc(C(=O)NNC(=S)NCc2ccccc2)cs1	inconclusive: 0.0073 µM [cytotoxic, full curve, poor fit]
COc1ccc(-c2noc(CCc3ccccc3)n2)cc1	inconclusive: 13 µM [cytotoxic, single point]
COc1ccc(C2NCCc3c2[nH]c2ccccc32)cc1CSc1nc2ccccc2s1 (stereo unspecified)	inconclusive: 29.1 µM [cytotoxic, single point]
O=C(CN1C2=NCCCN2c2ccccc21)c1ccc(Br)s1	inconclusive: 20.6 µM [cytotoxic, single point]
c1ccc(CN2CCN(c3nc(-c4ccccc4)nc(-n4ccnc4)n3)CC2)cc1	inconclusive: 32.6 µM [cytotoxic, single point]
CC(=O)Nc1ccc(-c2ccnc3c2CC(C)(C(=O)NCCC(F)(F)F)O3)cc1 (stereo unspecified)	inconclusive: 32.6 µM [cytotoxic, partial curve, poor fit]
C=CCC(CC)C(=O)NC(=O)N1CCCc2ccccc21 (stereo unspecified)	inactive
COc1ccc(-c2c(C)c3ccc(O)c(CN4CCOCC4)c3oc2=O)cc1OC	inactive
O=C(Nc1ncn[nH]1)c1cc(S(=O)(=O)Nc2cccc(C(F)(F)F)c2)ccc1Cl	inconclusive: 29.1 µM [rising, single point]
CCN(CC(O)Cn1c2ccccc2c2ccccc21)S(=O)(=O)c1ccc(C)cc1 (stereo unspecified)	inconclusive: 29.1 µM [cytotoxic, single point]
Cc1cc(C(=O)N/N=C/c2sc(N3CCOCC3)nc2-c2ccccc2)c(C)o1	inactive
Cc1ccnc2ccc(F)cc12	inactive
CCCS(=O)(=O)c1cnc(C2COc3ccccc3O2)nc1N (stereo unspecified)	inconclusive: 20.6 µM [cytotoxic, single point]

SMILES	Potency
COC(=O)c1ccc([C@H]2CC(=O)O2)cc1	inconclusive: 25.9 µM [cytotoxic, single point]
COc1ccc(-c2nc(CN3CCC(C(=O)N4CCOCC4)CC3)c(C)o2)cc1OC	inconclusive: 29.1 µM [rising, single point]
CC(C)(C)c1ccc(C(=O)Nc2ccc(-c3nc4ccccc4o3)c(O)c2)cc1	inconclusive: 18.4 µM [rising, single point]
CC(C)(C)c1csc(NC(=O)c2ccccc2O)n1	inconclusive: 23.1 µM [cytotoxic, partial curve]
COC(=O)C[C@@H]1OC[C@H](C(C)C)N1S(=O)(=O)c1ccc(C)cc1	inactive
O=C(O)c1ccc(-c2sc(Nc3ccccc3)n[n+]2-c2ccccc2)cc1	inactive
COc1ccc(-c2csc3ncnc(NCCCO)c23)cc1	inactive
CCCCCCCCn1ccc(=N)cc1	active: 5.8 µM
Clc1ccc(Cn2cc(/C=N/n3cnnc3)c3ccccc32)c(Cl)c1	inconclusive: 32.6 µM [cytotoxic, single point]
CC(=NNC(=S)Nc1ccccc1Cl)c1ccccn1	inconclusive: 0.184 µM [cytotoxic, full curve, poor fit]
Cc1nnc(SCC(=O)N2CCC(c3noc4ccc(F)cc34)CC2)s1	inactive
COc1ccccc1Nc1nnc(C)c(=O)[nH]1	inactive
CCn1c(COc2ccccc2C)nnc1SCC(=O)OC	inactive
Clc1ccc(/C=C/c2ccnc3ccccc23)c(Cl)c1	inconclusive: 20.6 µM [cytotoxic, single point]
CN(C)c1ccc(CN2CCC(C(=O)NC(c3ccc(F)cc3)c3ccc4ccccc4n3)CC2)cc1 (stereo unspecified)	inconclusive: 32.6 µM [cytotoxic, partial curve, poor fit]
Cc1ccc2c(c1)N(C(=O)CCC(=O)NCc1cccc(F)c1)CC(C)O2 (stereo unspecified)	inactive
CCOc1cccc2sc(N(CCCN(C)C)C(=O)c3ccc(S(=O)(=O)N(CC)Cc4ccccc4)cc3)nc12	inconclusive: 25.9 µM [cytotoxic, single point]
CN(C)c1cccc(NC(=O)C2Cc3c(-c4ccccc4Oc4ccccc4)ccnc3O2)c1 (stereo unspecified)	inconclusive: 20.6 µM [cytotoxic, single point]
Nn1c(SCC(=O)Nc2ccccc2)nnc(Cc2ccccc2)c1=O	inactive
O=C(O)c1cccc(S(=O)(=O)Nc2ccc3oc(=O)sc3c2)c1	inconclusive: 23.1 µM [rising, single point]
O=C(c1ccc(Cl)cc1)n1nc(-c2cccnc2)nc1NCc1ccc(F)cc1	inactive
CC(=O)c1cccc(NC(=O)c2ccc3nc(Cc4ccccc4)oc3c2)c1	inconclusive: 18.4 µM [cytotoxic, single point]
O=C(Nc1ccc(N2CCOCC2)cc1)c1ccc(Cl)c(S(=O)(=O)N2CCCCC2)c1	inactive

Part of the list above, with each value named.
CCCCCCCCn1ccc(=N)cc1
  Potency: active: 5.8 µM
CC(=NNC(=S)Nc1ccccc1Cl)c1ccccn1
  Potency: inconclusive: 0.184 µM [cytotoxic, full curve, poor fit]
COc1ccccc1Nc1nnc(C)c(=O)[nH]1
  Potency: inactive
CCOc1cccc2sc(N(CCCN(C)C)C(=O)c3ccc(S(=O)(=O)N(CC)Cc4ccccc4)cc3)nc12
  Potency: inconclusive: 25.9 µM [cytotoxic, single point]
